For this test, the target named is T1, Matrin 3 of human post-mortem lumbar spinal cord (human (endogenous in lumbar spinal cord tissue)) (UniProt P43243).
T1 sequence: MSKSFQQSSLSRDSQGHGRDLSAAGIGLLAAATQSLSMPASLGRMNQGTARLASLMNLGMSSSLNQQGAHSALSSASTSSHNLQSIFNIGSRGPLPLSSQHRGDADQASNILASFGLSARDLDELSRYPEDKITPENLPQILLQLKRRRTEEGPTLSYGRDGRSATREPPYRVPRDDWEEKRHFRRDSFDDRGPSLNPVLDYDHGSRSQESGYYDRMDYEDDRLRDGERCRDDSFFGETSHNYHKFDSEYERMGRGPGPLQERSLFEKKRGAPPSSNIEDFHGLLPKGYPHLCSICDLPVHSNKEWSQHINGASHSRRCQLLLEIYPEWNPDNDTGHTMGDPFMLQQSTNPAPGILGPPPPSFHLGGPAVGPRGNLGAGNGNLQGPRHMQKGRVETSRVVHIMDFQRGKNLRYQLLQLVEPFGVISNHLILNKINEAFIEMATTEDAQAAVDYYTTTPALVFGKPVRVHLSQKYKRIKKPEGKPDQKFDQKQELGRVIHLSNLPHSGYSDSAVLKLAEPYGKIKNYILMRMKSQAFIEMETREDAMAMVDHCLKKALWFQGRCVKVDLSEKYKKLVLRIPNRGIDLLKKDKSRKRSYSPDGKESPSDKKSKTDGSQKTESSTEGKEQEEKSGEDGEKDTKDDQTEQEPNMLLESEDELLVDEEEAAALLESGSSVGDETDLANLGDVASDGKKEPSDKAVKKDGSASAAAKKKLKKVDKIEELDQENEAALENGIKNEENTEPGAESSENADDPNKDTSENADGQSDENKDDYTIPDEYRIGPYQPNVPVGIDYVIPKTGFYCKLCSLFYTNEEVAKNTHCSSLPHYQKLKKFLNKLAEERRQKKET
The experiment in a line: co-IP; Matrin 3 IP from nuclear lysates (150 µg protein) of human post-mortem lumbar spinal cord, controls n = 3 and ALS patients n = 3; western blot for Ddx39b and Matrin 3. In general terms: Immunoblotting shows a protein as a band on a membrane.

By UniProt entry, the sequences of proteins in these tests, tags left out.
UniProt Q13838: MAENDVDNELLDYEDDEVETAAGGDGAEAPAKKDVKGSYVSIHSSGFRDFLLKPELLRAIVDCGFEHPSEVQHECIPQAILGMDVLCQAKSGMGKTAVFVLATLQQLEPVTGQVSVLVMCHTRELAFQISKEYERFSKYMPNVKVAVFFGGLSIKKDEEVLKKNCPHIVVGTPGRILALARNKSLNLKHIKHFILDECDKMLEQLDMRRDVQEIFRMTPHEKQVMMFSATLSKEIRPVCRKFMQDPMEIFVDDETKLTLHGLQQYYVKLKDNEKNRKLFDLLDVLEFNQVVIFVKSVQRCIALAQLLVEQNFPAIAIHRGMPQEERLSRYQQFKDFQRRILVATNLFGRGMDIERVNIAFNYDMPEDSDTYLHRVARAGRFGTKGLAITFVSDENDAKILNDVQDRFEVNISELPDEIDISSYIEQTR

No constants are given. Whether binding was seen depends on the method and setting. In cells and extracts the contact can be indirect. Some entries that bind do so weakly or less than the wild type.

Among the data in article PMC5674072 are binding values, retold here.

In the case of “Ddx39b of human post-mortem lumbar spinal cord (from UniProt Q13838 1-428)”, the binding entry is given as “binds”.
